PubChem BioAssay AID662 (National Center for Advancing Translational Sciences (NCATS), 2007)
The list shows a part of the results. Further columns of the screen follow, without active or inactive calls. The list favours compounds with an active or inconclusive main result. Potencies come from curve fits of mixed quality, noted in brackets.

Assay: Cell signaling CRE-BLA (Fsk stim)
Details: CHO CRE-bla reporter (cAMP response element driving beta-lactamase), forskolin EC10, beta-lactamase ratio; measured here: 460 nm blue channel
Summary of the method: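 AC50 values, positive or negative, reflect shifts in EC10 NKH 477-induced CRE-bla reporter activity in CHO cells. Incubation lasted 3 h at 37 °C before CCF4 substrate (2 h, room temperature) and ratiometric 460/530 nm reading.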

For `Cc1c(C(=O)OCCOC(C)C)[nH]c2c1C(=O)CC(c1ccco1)C2` (configuration not stated), which AC50 is on record?
Its AC50 is 0.631 µM [rising, full curve].

For `Cc1ccc(NC(=O)OCC(F)(F)C(F)F)cc1NC(=O)OCC(F)(F)C(F)F`, which AC50 is on record?
The AC50 was 0.631 µM [falling, full curve].

For `Cc1cc(NC(=O)CSc2nc3ccsc3c(=O)n2Cc2ccccn2)n[nH]1`, which AC50 is on record?
Its AC50 is 12.6 µM [rising, single point].

Which AC50 does the source give for `CN(C)c1ccc(NC(=O)Cn2ncn3c(cc4ccccc43)c2=O)cc1` here?
The AC50 was 3.98 µM [falling, full curve].

With `CCCCn1c(=O)[nH]c(=O)c2c1nc(CN1C(=O)c3ccccc3S1(=O)=O)n2CCC` as the compound, how does the AC50 read?
Its AC50 is 12.6 µM [rising, partial curve].

Which AC50 does the source give for `Cc1ccccc1Cn1nnc(C(=O)Nc2cccc(C)c2C)c1N` here?
The AC50 was 0.794 µM [falling, full curve].

For `O=C(CN1C2CCCC1CC(NC(=O)c1ccco1)C2)Nc1ccccc1C(F)(F)F` (configuration not stated), which AC50 is on record?
The AC50 was 3.98 µM [rising, single point].

Which AC50 does the source give for `CN(C)c1nc(SCCOC(=O)c2ccccc2)nc(N(C)C)n1` here?
Its AC50 is 12.6 µM [rising, single point].

For `O=C(CSc1nc2ccccc2c(=O)n1C1CC1)NCc1ccccc1`, which AC50 is on record?
The AC50 was 0.251 µM [falling, partial curve].

For `O=C(CCn1ccc2ccccc21)Nc1ccc(N2CCOCC2)cc1`, which AC50 is on record?
The AC50 was 0.0251 µM [falling, full curve, poor fit].

Which AC50 does the source give for `CCOC(=O)c1nn(-c2ccccc2)c(C(=O)OCC)c1N` here?
The AC50 was 10 µM [rising, single point].

Which AC50 does the source give for `COc1ccc(C)cc1NC(=O)CSc1nnnn1Cc1ccccc1` here?
The AC50 was 5.01 µM [falling, single point].

With `O=C1Nc2ccc(S(=O)(=O)N3CCCCCC3)c3cccc1c23` as the compound, how does the AC50 read?
Its AC50 is 10 µM [rising, partial curve].

For `CCNc1c2c3c(cccc3n(C)c1=O)C(=O)c1ccccc1-2`, which AC50 is on record?
The AC50 was 2 µM [rising, full curve, poor fit].

Which AC50 does the source give for `CN1CCN(c2nc(-c3ccccc3)c3cc(Cl)ccc3n2)CC1` here?
Its AC50 is 6.31 µM [rising, partial curve].

Which AC50 does the source give for `Cc1nn(CC(O)Cn2c3c(c4ccccc42)CCN(C)C3=O)c(C)c1Br` (configuration not stated) here?
The AC50 was 25.1 µM [falling, single point].

For `CCOC(=O)c1sc(NCc2ccco2)c(-c2nc3ccccc3s2)c1N`, which AC50 is on record?
The AC50 was 0.158 µM [falling, full curve].

For `Cn1c(=O)c2c(nc(Br)n2CC(=O)C23CC4CC(CC(C4)C2)C3)n(C)c1=O`, which AC50 is on record?
The AC50 was 10 µM [rising, partial curve].

Which AC50 does the source give for `O=C(c1ccncc1)N1CCC2(CCCN(c3ncccn3)C2)CC1` here?
Its AC50 is 0.501 µM [falling, full curve, poor fit].

Which AC50 does the source give for `CCN1CCN(c2ncc(C(=O)Nc3ccccc3C(=O)OC)c3ccccc23)CC1` here?
The AC50 was 7.94 µM [rising, partial curve].

With `CCCn1c(CN2CCCCC2CC)nc2c1c(=O)n(C)c(=O)n2C` (configuration not stated) as the compound, how does the AC50 read?
The AC50 was 12.6 µM [rising, single point].

Which AC50 does the source give for `CCn1cc(C(=O)OCC(=O)OC2CC(C)CCC2C(C)C)c(=O)c2ccc(C)nc21` (configuration not stated) here?
The AC50 was 25.1 µM [rising, single point].

With `O=C(O)c1cccnc1SCCc1ccccc1` as the compound, how does the AC50 read?
Its AC50 is 20 µM [falling, partial curve].

With `CCOc1ccc(OCC)c(NC(=O)c2[nH]c(C)c(C(C)=O)c2C)c1` as the compound, how does the AC50 read?
The AC50 was 25.1 µM [rising, single point].

With `CN(C)/C=N/c1c(C#N)cnn1-c1ccc(C(F)(F)F)cn1` as the compound, how does the AC50 read?
Its AC50 is 20 µM [rising, single point].

For `Cc1ccc(-c2csc3nnc(SCc4csc(C)n4)n23)cc1`, which AC50 is on record?
Its AC50 is 12.6 µM [rising, single point].

For `Cc1sc2nc(C(C)C)nc(SCC(=O)N3CCN(C(=O)c4ccco4)CC3)c2c1C`, which AC50 is on record?
The AC50 was 7.94 µM [rising, partial curve].

With `CCn1c(SCC#N)nc2c(c1=O)C1(CCCC1)Cc1ccccc1-2` as the compound, how does the AC50 read?
The AC50 was 10 µM [rising, partial curve].

For `O=C(O)C(Cc1ccccc1)Cc1ccccc1`, which AC50 is on record?
Its AC50 is 5.01 µM [falling, single point].

With `Nc1ccc2c(c1)C(=O)c1ccccc1C2=O` as the compound, how does the AC50 read?
Its AC50 is 3.16 µM [rising, partial curve].

Which AC50 does the source give for `COc1ccc(C)cc1NC(=O)CSc1nnc(-c2ccccn2)n1Cc1ccco1` here?
Its AC50 is 1.58 µM [rising, full curve].

For `COc1cc(C2N(c3ccccc3)CCN2c2ccccc2)cc(OC)c1OC`, which AC50 is on record?
The AC50 was 12.6 µM [falling, single point].

With `COc1ccc(OC)c(-c2cc(C(=O)Nc3c(C)n(C)n(-c4ccccc4)c3=O)no2)c1` as the compound, how does the AC50 read?
Its AC50 is 7.94 µM [rising, partial curve].

For `c1csc(Cc2nn3c(-c4n[nH]c5c4CCC5)nnc3s2)c1`, which AC50 is on record?
Its AC50 is 25.1 µM [rising, single point].

With `Nc1c(C(=O)NCCN2CCOCC2)c2nc3ccccc3nc2n1CCc1ccccc1F` as the compound, how does the AC50 read?
Its AC50 is 12.6 µM [rising, partial curve].

For `CCOC(=O)c1c(C)[nH]c(C(=O)COC(=O)c2ccc(F)c(S(=O)(=O)N3CCOCC3)c2)c1C`, which AC50 is on record?
Its AC50 is 7.94 µM [rising, partial curve].

Which AC50 does the source give for `COc1cc2c(cc1OC)-c1cc(OCCN3CCOCC3)nc(=O)n1CC2` here?
Its AC50 is 3.98 µM [rising, full curve].

For `CC(=O)N1c2ccccc2C(=O)OC1c1cccnc1` (configuration not stated), which AC50 is on record?
Its AC50 is 0.631 µM [rising, full curve].

For `c1ccc(CN2CCN(c3nc4ccccc4n4cnnc34)CC2)cc1`, which AC50 is on record?
Its AC50 is 10 µM [rising, partial curve].

With `Cc1cnc(CNc2ccnc(-c3cccnc3)n2)cn1` as the compound, how does the AC50 read?
The AC50 was 10 µM [rising, single point].

Which AC50 does the source give for `COC(=O)CCc1c(C)nn(-c2ccccc2)c1C` here?
Its AC50 is 6.31 µM [falling, partial curve].

Which AC50 does the source give for `COc1ccccc1-c1nc(C(N)=O)c2[nH]c(=O)n(-c3cccc(C)c3)c2n1` here?
The AC50 was 12.6 µM [rising, partial curve].

With `N#CCSc1nc2c(sc(=S)n2Cc2ccco2)c(=O)n1-c1ccc(F)cc1` as the compound, how does the AC50 read?
The AC50 was 5.01 µM [rising, partial curve].

For `CCN(CC)C(=O)C1CCCN(c2ncnc3c2cnn3-c2cccc(C)c2)C1` (configuration not stated), which AC50 is on record?
The AC50 was 10 µM [rising, partial curve].

Which AC50 does the source give for `O=C(O)C(CC(=O)N1CCOCC1)NCc1ccccc1` (configuration not stated) here?
Its AC50 is 0.00794 µM [falling, full curve, poor fit].

Which AC50 does the source give for `COC(=O)c1oc2ccc(Br)cc2c1NC(C)=O` here?
Its AC50 is 7.94 µM [rising, partial curve].

Which AC50 does the source give for `CN1CCc2c(sc3c2c(=O)n(-c2cccc(Cl)c2)c2nncn32)C1` here?
Its AC50 is 12.6 µM [falling, partial curve, poor fit].

With `COc1cccc(Nc2ncc3nc(CCc4ccccc4)c(=O)n(C4CC4)c3n2)c1` as the compound, how does the AC50 read?
The AC50 was 10 µM [rising, partial curve].

Which AC50 does the source give for `O=C(Nc1nc(-c2ccc3c(c2)OCO3)cs1)C1COc2ccccc2O1` (configuration not stated) here?
Its AC50 is 7.94 µM [falling, partial curve].

For `Cc1nnc(SCCn2c(N3CCC(C)CC3)nc3c2c(=O)n(C)c(=O)n3C)s1`, which AC50 is on record?
Its AC50 is 3.98 µM [falling, partial curve].

Which AC50 does the source give for `Cc1ccc(Cn2c(=O)n(Cc3ccco3)c(=O)c3ccccc32)cc1` here?
The AC50 was 20 µM [rising, single point].

With `COc1ccc(NC(=O)C2CCN(S(=O)(=O)c3ccc(OC)c(OC)c3)CC2)c(OC)c1` as the compound, how does the AC50 read?
The AC50 was 0.00316 µM [falling, full curve, poor fit].

Which AC50 does the source give for `CCOC(=O)c1c(C)[nH]c(C(=O)COC(=O)C2CC(=O)N(Cc3ccccc3)C2)c1C` (configuration not stated) here?
The AC50 was 10 µM [rising, partial curve].

Which AC50 does the source give for `COc1ccc(-n2c(=O)c(-c3ccc(Cl)cc3)nc3cnc(N4CCOCC4)nc32)cc1` here?
The AC50 was 2 µM [rising, partial curve].

For `O=C(c1ccccc1-c1ccccc1)N1CCN(c2ccccn2)CC1`, which AC50 is on record?
Its AC50 is 7.94 µM [rising, partial curve, poor fit].

With `CCN1C(=O)CSc2ccc(C(=O)NCCCN3CCOCC3)cc21` as the compound, how does the AC50 read?
The AC50 was 2 µM [falling, single point].

For `O=C(NCc1ccc(F)cc1)N[C@@H](Cc1ccccc1)C(=O)O`, which AC50 is on record?
The AC50 was 12.6 µM [rising, single point].

Which AC50 does the source give for `CCOC(=O)c1cnc2c(C(=O)OC)cccc2c1NCCN1CCOCC1` here?
Its AC50 is 10 µM [rising, single point].

For `Cc1oc2cc3oc(=O)c4c(c3cc2c1C)CCC4`, which AC50 is on record?
The AC50 was 0.398 µM [falling, partial curve].

For `CCOC(=O)c1c(C)oc2c1c(C=NCc1ccccn1)c(O)c1ccccc12`, which AC50 is on record?
Its AC50 is 31.6 µM [falling, single point].

With `Cc1noc(C)c1CSc1ncnc2ccccc12` as the compound, how does the AC50 read?
The AC50 was 10 µM [rising, partial curve].

For `CC(C(=O)N(C1CC1)C1(C(=O)Nc2ccccc2)CCCC1)N1C(=O)c2ccccc2C1=O` (configuration not stated), which AC50 is on record?
The AC50 was 10 µM [falling, single point].

Which AC50 does the source give for `CCCCCn1c(SCC#N)nc2cc(C(=O)NCC3CCCO3)ccc2c1=O` (configuration not stated) here?
The AC50 was 2.51 µM [rising, full curve].

For `COCCCNC(=O)c1ccc(Cn2c(=O)[nH]c3ccccc3c2=O)cc1`, which AC50 is on record?
The AC50 was 10 µM [rising, partial curve].

Which AC50 does the source give for `O=c1cc(-c2ccccc2)nc2n1Cc1ccccc1-2` here?
The AC50 was 15.8 µM [rising, single point].

Which AC50 does the source give for `N#CCSc1nc2ccccc2c(=O)n1CCC(=O)NC1CCCCC1` here?
Its AC50 is 5.01 µM [falling, partial curve].

With `CC(C)CCn1nc(C(=O)OC(C)C(=O)NC(N)=O)c2ccccc2c1=O` (configuration not stated) as the compound, how does the AC50 read?
Its AC50 is 3.98 µM [rising, partial curve].
